The text below walks through data of publication PMC11106082.

What all share (assay): two-hybrid; bacterial two-hybrid (BTH): T18 and T25 fusions from pKT25 or pUT18C co-transformed into E. coli DHM1; spotted on LB agar with 1 mM IPTG and 100 µg/ml X-Gal, 30 °C, 24 or 40 h; blue colour on interaction
Assay [1] addresses T1, TssK cognate to TssA1 (H1-T6SS baseplate component) (P. aeruginosa) (UniProt Q9I753).
T1 sequence: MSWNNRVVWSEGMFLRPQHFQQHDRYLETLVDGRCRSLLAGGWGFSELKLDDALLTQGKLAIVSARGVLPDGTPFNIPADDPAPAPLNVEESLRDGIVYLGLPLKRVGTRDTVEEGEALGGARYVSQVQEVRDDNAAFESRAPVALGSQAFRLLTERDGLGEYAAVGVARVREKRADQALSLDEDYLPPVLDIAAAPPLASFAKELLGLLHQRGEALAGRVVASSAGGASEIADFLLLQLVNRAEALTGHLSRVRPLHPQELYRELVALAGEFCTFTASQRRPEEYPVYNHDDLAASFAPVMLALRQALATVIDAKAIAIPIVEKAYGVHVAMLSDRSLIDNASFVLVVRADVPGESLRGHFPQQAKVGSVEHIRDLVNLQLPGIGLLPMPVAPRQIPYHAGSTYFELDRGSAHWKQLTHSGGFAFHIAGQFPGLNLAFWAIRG

A further assay deals with TssA1 (P. aeruginosa) (UniProt Q9I750).
Assay [2] deals with T2, TssB1 (P. aeruginosa), Q9I749.
T2 chain: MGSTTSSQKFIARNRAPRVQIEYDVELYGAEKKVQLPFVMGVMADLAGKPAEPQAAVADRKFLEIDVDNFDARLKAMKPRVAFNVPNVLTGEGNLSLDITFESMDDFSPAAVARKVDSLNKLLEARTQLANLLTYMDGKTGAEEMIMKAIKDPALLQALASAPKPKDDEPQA
The following applies: remark: other sources report otherwise.

Results are given in words; binding and its absence hold for the method and conditions named. Some binding calls cover weakened binding; strength is not graded here.

B1: TssA1 (protein, UniProt Q9I750 1-344)
chain: MLDVPVLLAAVSPDSPCGDDLEYDAAFLELERIAQGQPERQMGDAVLPAEPPEWPRVRALASELFGRSKDLRVANLLLQSNVALDGLDGLADGLLLVRELLGQYWDGVYPLLDADDDNDPTFRINALTGLVAEPLLQLVWAIPLVRSRAFGPVNLRAALNAAGLQRFASETLSPEQIAGAFADADADALAATRRALDGAQEHALAIESGVAERVGSAQGLDLGPLRQLLRQALQVFDLYGPQGAGESLAPGAEAVADEQVGAAPVAAVAAPAPRASGEIANREDVLRQLDRLLEYYVRHEPSSPVPVLLKRAKTLVTADFAEIVRNLIPDGISQFETLRGPESE
In the case of B1, the binding result (in assay [1]; with TssA1 (P. aeruginosa)) was “binds” in each case.

B2: TssA1, Q9I750 1-344 (protein)
chain: B1 chain
On to B2, for which the binding entry in assay [2] is “no binding”.
